These are yes or no findings as the source states them, for the method shown. Binding seen in cells or lysates may run through a third protein. Some results given as binding are weak or reduced against the parent protein; the word gives no strength. Sequences can lack the tags named with a protein.

This experiment has as its target T1, untagged human Zcyto7 (human) (UniProt Q9UHF5).
T1 sequence (looked up): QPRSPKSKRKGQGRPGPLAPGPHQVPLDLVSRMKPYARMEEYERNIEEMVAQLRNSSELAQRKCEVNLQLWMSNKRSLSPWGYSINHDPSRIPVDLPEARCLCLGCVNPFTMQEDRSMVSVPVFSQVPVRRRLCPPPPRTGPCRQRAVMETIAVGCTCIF
The experiment can be described thus: co-expression and co-purification on anti-EE tag antibody affinity; interaction not due to interchain disulfide bonding.

B1: Human Ztgfβ-9 protein (ligand)
chain: AGAPRAGRRPARPRGCADRPEELLEQLYGRLAAGVLSAFHHTLQLGPREQARNASCPAGGRPADRRFRPPTNLRSVSPWAYRISYDPARYPRYLPEAYCLCRGCLTGLFGEEDVRFRSAPVYMPTVVLRRTPACAGGRSVYTEAYVTIPVGCTCVPEPEKDADSINSSIDKQGAKLLLGPNDAPAGP
notes: Expressed in BHK cells both with and without a C-terminal Glu-Glu tag; It migrated at 29 kDa reduced and 49 kDa non-reduced, read as a disulfide cross-linked homodimer
For the molecule B1, the binding result is “binds”.

The record behind these values is patent publication US20040132136A1 (ZymoGenetics, published 2004).
